The full ranking holds about 33,000 sequences; the median of “E-score (-0.5 to 0.5)” is about -0.015, and the highest 2% start at about 0.3. This is one part of the list.
The sequences below were run against T1, Abf1 (UniProt P14164) (assay: PBM E-score (8-mer binding enrichment) (E-score (-0.5 to 0.5)); higher = stronger / more preferred TF binding). Details: protein concentration: 200 nM; construct: GST-full length.
T1 sequence: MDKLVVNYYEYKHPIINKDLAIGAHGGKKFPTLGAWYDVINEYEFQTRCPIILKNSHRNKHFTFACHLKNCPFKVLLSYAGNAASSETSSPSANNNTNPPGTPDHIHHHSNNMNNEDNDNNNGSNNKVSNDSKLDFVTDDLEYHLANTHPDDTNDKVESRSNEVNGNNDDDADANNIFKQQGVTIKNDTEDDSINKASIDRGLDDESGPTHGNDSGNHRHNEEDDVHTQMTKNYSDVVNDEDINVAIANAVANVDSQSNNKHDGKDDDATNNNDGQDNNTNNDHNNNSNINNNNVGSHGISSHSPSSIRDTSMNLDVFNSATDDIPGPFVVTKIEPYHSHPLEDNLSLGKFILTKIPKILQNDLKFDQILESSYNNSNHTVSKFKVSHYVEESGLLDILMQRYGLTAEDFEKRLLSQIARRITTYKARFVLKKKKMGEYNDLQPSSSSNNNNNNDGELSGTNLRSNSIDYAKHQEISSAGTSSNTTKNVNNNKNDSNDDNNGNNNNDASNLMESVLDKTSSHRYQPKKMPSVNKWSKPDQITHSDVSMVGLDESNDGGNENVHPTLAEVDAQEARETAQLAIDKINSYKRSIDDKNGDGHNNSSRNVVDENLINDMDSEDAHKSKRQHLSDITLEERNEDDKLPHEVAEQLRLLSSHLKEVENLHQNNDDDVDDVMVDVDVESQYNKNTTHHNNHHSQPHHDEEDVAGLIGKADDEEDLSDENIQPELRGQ
Outline: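 Universal all-10-mer Agilent arrays, double-stranded by primer extension on fresh or once-stripped slides, were probed with about 100-200 nM GST-tagged yeast transcription factors made by PURExpress. Fluorescent anti-GST detected bound protein, and masliner normalised the scans. E-scores from the Universal PBM Analysis Suite were given to each ungapped eight-base word pooled with its reverse complement.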

Sequence | PBM E-score
ACATTTAG | -0.0407
TCGATCGA | -0.141
CGCCGTGC | 0.166
TTACACAA | 0.134
CTGGATTA | 0.118
TCGCTGCA | 0.079
CGCGCGCG | -0.042
ATACTCGA | -0.117
CTGTAGAC | -0.109
ATGACTTA | 0.242
AACGTAGC | 0.176
GCTGCTCC | -0.194
GAGCGCGA | 0.0052
CACGGAAG | 0.0921
ACATGGGC | 0.0612
CGCTGTAC | -0.228
ACCCTTCT | -0.15
TCCGCTAA | 0.0328
CGCCGTCA | 0.199
AGCGTGAA | 0.0285
AGGTCCTC | -0.171
TAGGCAGA | 0.0907
GCTGGGCA | -0.0531
GAGTGATC | 0.327
ATTTACGA | 0.253

Sequence | PBM E-score
ATCTGACC | 0.042
AAGACCGC | -0.15
CATCATCG | 0.229
CCACCTAG | -0.225
ACCAACTA | 0.0184
TCCGGAGA | -0.178
GATGGTGC | -0.28
AGGTGCTA | -0.0656
ATGAACTA | -0.181
ACCTATGC | -0.226
CGCGTTAG | 0.0943
ACGTCTTC | -0.0652
CCCAGCCA | 0.0326
CCTCGGTA | -0.267
ATGTCTAG | 0.211
ATACGTGA | 0.241
TATTTTAA | 0.174
CCCATCAG | -0.384
CGGCATAG | 0.0597
CCCGACAG | 0.0267
ATTACGAA | 0.281
ACCCCAGC | 0.124
ACGCAAAC | -0.0491
ATATGAAT | -0.00615
CCCGTTAG | -0.142

Sequence | PBM E-score
AGGCCGGC | -0.286
CCGCGCCC | -0.247
AAGAGTAC | 0.0113
GGCCCGGA | -0.234
AATAGAGC | -0.168
CGTATGGC | 0.249
GTCTTGGA | -0.188
TCTCAAGA | -0.00332
CAAAATCA | 0.173
CGAGGTCA | 0.0811
GCTCCCGA | -0.233
ACTTGCGC | -0.045
TAAATCTA | 0.141
AGGGAAGG | -0.23
AGCTGCGC | -0.182
CCATTCTC | -0.082
ATAGTACA | 0.251
CGGTGTAG | -0.108
AACGCAAT | 0.0456
AAGCATCA | -0.0094
ACCACTTC | -0.0468
CGTTTCTC | -0.148
GCTGTCCC | -0.21
CGCCCCAA | -0.14
GAGTTCCA | -0.0115

Sequence | PBM E-score
AGCGTGCC | -0.076
ACTGGCTA | -0.0948
CTCAGTAC | -0.1
AGGACCAA | -0.0325
AACTCCAA | -0.0622
CCACCTAC | -0.011
CATAAAAG | 0.0549
CAACAAGA | 0.0472
ACATCGAA | 0.185
AGATAGGA | -0.117
AGGAGTAG | -0.0714
AGAAACAC | -0.0584
CCCGCTAC | 0.134
ACTTACAT | -0.0917
CCTCTGTC | -0.0632
CACGTAAA | -0.155
AAAAGGAT | 0.174
GACGTCAC | 0.233
ACCATAAC | -0.0289
CTAAGAAA | 0.0591
AGCTGCAC | -0.0495
GACTCCAC | -0.286
ACTACCCT | -0.23
ACCCTTAA | -0.0261
ACTCTTTG | -0.0213

Sequence | PBM E-score
TCGGGCCA | -0.182
CCAACCAC | 0.0854
AACTCACA | 0.0255
ACAGGGGT | 0.0457
AGCAGCAA | -0.152
GGGCGGGA | -0.118
AGCGTTTG | -0.116
CGGAGTGC | -0.0789
CCGTCCAA | 0.117
ACCAACAC | -0.0641
CGAGTACA | 0.00925
AGGATCGC | 0.109
GCAGGCAC | -0.145
ACGACCGT | 0.061
AAAATAAG | 0.127
ATTGCTTC | 0.0681
CAGGTTGA | -0.172
CCTCCATC | -0.106
CACATAGG | -0.0151
AAAACAAC | -0.0575
AACCGGCA | -0.125
ATCGCGGC | 0.111
CCATGCAG | -0.22
AGGGCAAC | -0.0898
ACATTTCT | 0.0747

Sequence | PBM E-score
CACTCAAG | -0.0316
GCGCCTCA | -0.23
CGAACGCA | 0.197
CCCATATC | -0.00171
ATTTCCAG | -0.104
CCCTTAAA | 0.109
CGCAACAA | 0.0283
GCTTCTAA | -0.132
CCTTAGTC | 0.0399
GAGGCGAC | -0.0714
AGCAACTA | 0.0764
CTGGTTAC | -0.108
ATCTTAAT | 0.0845
TCGGCCCA | -0.0739
ATTTGGGG | -0.0322
CAAGCGAA | 0.0652
GGCTCGGA | -0.23
CAAAGTTA | 0.136
GGTAGGGA | -0.177
AAGGCCGG | -0.184
TCGTTACA | 0.179
GCTTAGAA | -0.0686
CTGTAGCA | -0.139
AATCCATC | 0.0589
ACTCGGGC | -0.0124

Sequence | PBM E-score
AGCACATA | -0.0221
ATGATGTA | 0.272
GATGCACA | 0.0424
GTTGTCGA | -0.122
ATTTCCCC | -0.0526
ACGGACCG | -0.0268
GAACTTGA | -0.0345
GGTATTTA | 0.0301
AAAAGAAG | 0.0358
ATGCTTTC | -0.0481
CTAACCGC | -0.064
CCGGAGAG | -0.223
GATGATCC | 0.0853
CTATAGAA | -0.136
AGGTGGTG | -0.0773
CTTACGTA | 0.212
AACGAAAA | 0.103
AACGAGAA | 0.085
ATCGTAGA | 0.28
CTAACTCC | -0.126
TTATCGAA | 0.107
TAGTCGGA | 0.00166

An excerpt from further up:
Sequence | PBM E-score
ACGACCGT | 0.061
AAAATAAG | 0.127
ATTGCTTC | 0.0681
CAGGTTGA | -0.172
CCTCCATC | -0.106
CACATAGG | -0.0151
AAAACAAC | -0.0575
AACCGGCA | -0.125
ATCGCGGC | 0.111
CCATGCAG | -0.22
AGGGCAAC | -0.0898
ACATTTCT | 0.0747
CACTCAAG | -0.0316
GCGCCTCA | -0.23
CGAACGCA | 0.197
CCCATATC | -0.00171
ATTTCCAG | -0.104
CCCTTAAA | 0.109
CGCAACAA | 0.0283
GCTTCTAA | -0.132
CCTTAGTC | 0.0399
GAGGCGAC | -0.0714
AGCAACTA | 0.0764
CTGGTTAC | -0.108
ATCTTAAT | 0.0845
TCGGCCCA | -0.0739
ATTTGGGG | -0.0322
CAAGCGAA | 0.0652
GGCTCGGA | -0.23
CAAAGTTA | 0.136
GGTAGGGA | -0.177
AAGGCCGG | -0.184
TCGTTACA | 0.179
GCTTAGAA | -0.0686
CTGTAGCA | -0.139
AATCCATC | 0.0589

Source: the supplement of paper PMC3334620
